Assay results

From PubChem BioAssay record AID504749 (NCATS, 2011).

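A panel of P. falciparum strains inside erythrocytes is exposed to compounds for three days, then a DNA-binding dye reports the amount of parasite DNA. Each compound was titrated across a series from about 0.000037 to 29 µM. The number is the fitted AC50, the concentration giving a half-maximal change in signal; a lower value means higher potency, whether the curve shows a decrease or an increase. Calls follow the curve class and fit quality: every row here is inconclusive, covering signal-raising curves and weak, poorly fitted, partial or highest-dose-only inhibition curves.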

Values are in µM. All entries here are filed as inconclusive. Only part of the assay is shown, chiefly results filed as inconclusive. A potency from a partial, single-point or poor curve is only a rough figure.

SMILES | setting | potency (µM) | curve as filed
C#Cc1cccc(Nc2ncnc3cc(OCCOC)c(OCCOC)cc23)c1 | DIV30 | 19.01 | inhibitor, single point
C#Cc1cccc(Nc2ncnc3cc(OCCOC)c(OCCOC)cc23)c1 | CP211 | 15.1 | inhibitor, single point
C#Cc1cccc(Nc2ncnc3cc(OCCOC)c(OCCOC)cc23)c1 | PC26 | 13.46 | inhibitor, partial curve
C#Cc1cccc(Nc2ncnc3cc(OCCOC)c(OCCOC)cc23)c1 | DFO2036 | 11.22 | inhibitor, single point
C#Cc1cccc(Nc2ncnc3cc(OCCOC)c(OCCOC)cc23)c1 | P93_24 | 8.912 | inhibitor, partial curve
C#Cc1cccc(Nc2ncnc3cc(OCCOC)c(OCCOC)cc23)c1 | CP297 | 19.01 | inhibitor, single point
C#Cc1cccc(Nc2ncnc3cc(OCCOC)c(OCCOC)cc23)c1 | CP203 | 7.569 | inhibitor, partial curve
C#Cc1cccc(Nc2ncnc3cc(OCCOC)c(OCCOC)cc23)c1 | ECU | 11.22 | inhibitor, single point
C[C@]12C/C(=C/O)C(=O)C[C@@H]1CC[C@@H]1[C@@H]2CC[C@@]2(C)[C@H]1CC[C@]2(C)O | CP191 | 11.22 | inhibitor, single point
C[C@]12C/C(=C/O)C(=O)C[C@@H]1CC[C@@H]1[C@@H]2CC[C@@]2(C)[C@H]1CC[C@]2(C)O | 7G8 | 15.85 | inhibitor, single point
C[C@]12C/C(=C/O)C(=O)C[C@@H]1CC[C@@H]1[C@@H]2CC[C@@]2(C)[C@H]1CC[C@]2(C)O | CP247 | 10 | inhibitor, single point
C[C@]12C/C(=C/O)C(=O)C[C@@H]1CC[C@@H]1[C@@H]2CC[C@@]2(C)[C@H]1CC[C@]2(C)O | DIV14 | 19.01 | inhibitor, single point
C[C@]12C/C(=C/O)C(=O)C[C@@H]1CC[C@@H]1[C@@H]2CC[C@@]2(C)[C@H]1CC[C@]2(C)O | DIV17 | 19.01 | inhibitor, single point
C[C@]12C/C(=C/O)C(=O)C[C@@H]1CC[C@@H]1[C@@H]2CC[C@@]2(C)[C@H]1CC[C@]2(C)O | parasite line B | 17.78 | inhibitor, single point
C[C@]12C/C(=C/O)C(=O)C[C@@H]1CC[C@@H]1[C@@H]2CC[C@@]2(C)[C@H]1CC[C@]2(C)O | PAD | 10 | inhibitor, single point
C[C@]12C/C(=C/O)C(=O)C[C@@H]1CC[C@@H]1[C@@H]2CC[C@@]2(C)[C@H]1CC[C@]2(C)O | W2 | 19.01 | inhibitor, single point

Some entries from above, unchanged:

| SMILES | setting | potency (µM) | curve as filed |
|---|---|---|---|
| `C#Cc1cccc(Nc2ncnc3cc(OCCOC)c(OCCOC)cc23)c1` | P93_24 | 8.912 | inhibitor, partial curve |
| `C#Cc1cccc(Nc2ncnc3cc(OCCOC)c(OCCOC)cc23)c1` | CP211 | 15.1 | inhibitor, single point |